Each structure is given as a SMILES string. The list shows a part of the results. These are further read-outs of the screen, such as a control signal, another cell line or another target. No call is given for them. Compounds called inactive in the main read-out are mostly missing here. The note in brackets gives the kind of curve behind each potency; many fits are weak.

Drawing on PubChem BioAssay AID1487 (National Center for Advancing Translational Sciences (NCATS), 2009), this text covers AC50 for 55 compounds.

The nature of the assay: qHTS Assay for Modulators of Lamin A Splicing. The note with it: HeLa LMNA splicing GFP/RFP minigene ratio, 48 h. The method, boiled down: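 S3 HeLa cells stably expressing lamin A-EGFP splicing minigene plus DsRed2, 600 cells/well, 48 h compound exposure at 37C. Laser-scanning cytometry; analysed as GFP (500-530 nm)/RFP (575-640 nm) total intensity ratio; 0.5% DMSO vehicle.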

Setting [1] is: measured here: GFP splicing reporter channel.
Setting [2] is: measured here: RFP viability control channel.

As for `O=C(c1ccco1)N1CCCC(c2nc(-c3ccc(S(=O)(=O)NCc4ccccc4)cc3)no2)C1` (centres undefined), the AC50 is 5.62 µM [rising, full curve] under setting [1] and 3.55 µM [rising, full curve] under setting [2].

Turning to `CCCNC(=O)OC[C@H]1O[C@H](CCO/N=C/[C@@H](NS(=O)(=O)c2ccc(C)cc2)[C@H](C)/C=C/CC(=O)OC)C=C[C@@H]1Oc1ccc(OC)cc1`, the AC50 runs as follows: under setting [1], 7.08 µM [rising, partial curve]; under setting [2], 12.6 µM [rising, partial curve].

Turning to `COc1cccc(CNC(=O)c2cc3ccc4cccnc4c3[nH]2)c1`, under setting [2], the AC50 was 11.2 µM [falling, partial curve].

Regarding `COc1cccc2cc(C(=O)OCC(=O)NCc3ccc4c(c3)OCO4)c(=O)oc12`, the concentration at half-maximal activity (AC50) under setting [1] was 0.631 µM [rising, full curve].

On to `CC[C@H](C)C(=O)O[C@H]1CCC=C2C=C[C@H](C)[C@H](CC[C@@H]3C[C@H](O)CC(=O)O3)C21` (some centres undefined), for which the AC50 was 35.5 µM [falling, single point] under setting [1] and 11.2 µM [falling, partial curve] under setting [2].

On to `Nc1ccc2nc(-c3ccccn3)[nH]c2c1`, for which the AC50 under setting [2] was 12.6 µM [rising, single point].

For the compound `COc1ccc(N/C=C(\C#N)c2nc3ccccc3n2C)c(OC)c1`, under setting [2], the AC50 was 31.6 µM [rising, partial curve, poor fit].

`O=C(Nc1ccc2c(c1)OCO2)N1CCN(c2cccc(C(F)(F)F)c2)CC1`: under setting [2], the AC50 was 22.4 µM [rising, partial curve].

As to `Cc1[nH]c2ccccc2c1C(=O)C(=O)N1CC=C(c2ccccc2)CC1`, the AC50 under setting [2] is 31.6 µM [rising, single point].

Regarding `O=C(Cn1c(=O)n2nc(-c3cccc(F)c3)nc2c2ccccc21)N1CCN(c2ccccc2F)CC1`, the AC50 under setting [1] is 0.0282 µM [falling, partial curve, poor fit].

For `Cc1oc2ccc(O)cc2c1C(=O)c1ccc([N+](=O)[O-])cc1`, the AC50 is, setting by setting: under setting [1], 14.1 µM [rising, partial curve]; under setting [2], 12.6 µM [rising, partial curve].

With `OCC1OC(n2cnc3c(Cl)nc(Cl)nc32)C(O)C1O` (centres undefined), the AC50 runs as follows: under setting [1], 11.2 µM [falling, partial curve]; under setting [2], 3.55 µM [falling, partial curve].

In the case of `COc1ccc(OC)c(NC(=O)c2c(C)oc3ncnc(N4CCOCC4)c23)c1`, the AC50 under setting [2] was 35.5 µM [rising, single point].

As to `COc1cc2c(cc1OC)CN(c1nc(CN3CCOCC3)nc3sc4c(c13)CCC(C)C4)CC2` (centres undefined), the AC50 under setting [2] is 14.1 µM [rising, single point].

On to `CC(=O)NC1=NN(C(C)=O)C(C)(c2cccc([N+](=O)[O-])c2)S1` (centres undefined), for which, under setting [2], the AC50 is 0.1 µM [falling, full curve, poor fit].

`CN(C)S(=O)(=O)c1ccc2oc(SCC(=O)Nc3ccccc3F)nc2c1`: the AC50 reads like this: under setting [1], 0.316 µM [rising, full curve, poor fit]; under setting [2], 0.00355 µM [rising, full curve, poor fit].

Regarding `COc1ccc(/C=C2/SC(=O)N(CCCCCC(=O)Nc3ccccc3C(=O)O)C2=S)cc1`, under setting [2], the AC50 was 14.1 µM [rising, partial curve, poor fit].

Consider `CC(C)c1ccc(CNC(=O)CSCC(=O)Nc2ccc3ccccc3c2)cc1`, for which the AC50 under setting [2] was 35.5 µM [rising, single point].

Regarding `NC(=O)C1CCN(C(=S)NCCc2ccccc2)CC1`, the AC50 under setting [1] is 0.0398 µM [falling, full curve, poor fit].

Consider `CC(Sc1nc2c([nH]c3ccccc32)c(=O)n1-c1ccccc1)c1ccccc1` (centres undefined), for which the AC50 under setting [1] was 35.5 µM [falling, single point] and the AC50 under setting [2] is 35.5 µM [falling, single point].

Turning to `CC1(C)C(=O)OC(C(=O)c2ccc(Cl)cc2)C(C)(C)C1=O` (centres undefined), the AC50 under setting [2] is 22.4 µM [falling, partial curve, poor fit].

For the compound `CCOCc1nnc(NC(=O)c2ccc(NC(C)=O)cc2)s1`, the AC50 under setting [1] is 17.8 µM [rising, single point].

On to `Cc1ccc(-c2cc(C(=O)NC3=NCCS3)c3cc(Br)ccc3n2)o1`, for which the AC50 under setting [2] was 17.8 µM [rising, single point].

On to `CCCCNC(=O)c1sc2ncnc(N3CCc4ccccc4C3)c2c1C`, for which the AC50 by setting is: under setting [1], 12.6 µM [rising, single point]; under setting [2], 15.8 µM [rising, single point].

`CCC1CN(C(=O)N2CCC(C(=O)N3CCN(c4cc(C)ccc4C)CC3)CC2)c2ccccc2O1` (centres undefined): the AC50 under setting [1] was 0.0158 µM [rising, full curve].

As for `CC(=O)Cc1nsc(Nc2cccc(C)c2)n1`, the AC50 runs as follows: under setting [1], 0.631 µM [falling, full curve, poor fit]; under setting [2], 0.794 µM [falling, full curve, poor fit].

As for `CC1(C)Cc2cccc(OCC(=O)N3CCN(c4ccc([N+](=O)[O-])cc4)CC3)c2O1`, the AC50 under setting [2] is 22.4 µM [rising, single point].

Regarding `COc1ccc(-c2cc3ccc(O)c(CN4CCCC4)c3oc2=O)cc1OC`, the AC50 under setting [1] is 0.708 µM [rising, single point].

With `COc1ccc(OC)c(S(=O)(=O)NCCOC23CC4CC(CC(C4)C2)C3)c1`, the AC50 is 15.8 µM [rising, single point] under setting [1] and 25.1 µM [rising, single point] under setting [2].

On to `CC(=O)Nc1ccc(SCC(=O)Nc2cc(C(C)(C)C)nn2-c2ccccc2)cc1`, for which, under setting [2], the AC50 was 22.4 µM [rising, single point].

`CCOC(=O)C1=C(Cc2ccc(F)cc2)C(=O)c2ccccc2C1=O`: the AC50 under setting [1] was 35.5 µM [falling, single point].

On to `CCOC(=O)c1c(NC(=O)CC2SC(N)=NC2=O)sc(C)c1C` (centres undefined), for which the AC50 under setting [1] was 3.55 µM [falling, partial curve, poor fit].

With `Cc1ccc(CN2CCN(Cc3cccn3-c3ccccn3)CC2CCO)cc1` (centres undefined), the AC50 is 0.398 µM [falling, partial curve] under setting [1] and 0.251 µM [falling, full curve] under setting [2].

With `Brc1ccc(CSc2ncnc3nc[nH]c23)cc1`, under setting [2], the AC50 is 35.5 µM [rising, single point].

For `Cc1ccc2nc(N(Cc3cccnc3)C(=O)CCOc3ccccc3)sc2c1`, under setting [2], the AC50 is 10 µM [rising, single point].

In the case of `O=C(/C(=C/O)N=Nc1cccc(C(F)(F)F)c1)c1ccccc1`, the AC50 reads like this: under setting [1], 0.0891 µM [rising, full curve, poor fit]; under setting [2], 3.98 µM [rising, partial curve].

Regarding `CCc1nnc(NC(=O)c2ccc(-c3ccc(F)cc3)o2)s1`, the AC50 under setting [2] is 15.8 µM [rising, single point].

On to `Cc1ccc(C)c(NC(=S)NCC(c2cccnc2)N2CCOCC2)c1` (centres undefined), for which the AC50 under setting [2] is 5.62 µM [rising, single point].

On to `CCOC(=O)C1=C(C)OC(N)=C(C(=O)OCC)C1c1ccncc1` (centres undefined), for which the AC50 under setting [1] was 31.6 µM [rising, single point].

For `CCc1ccc(NC(=O)CSc2nc3c([nH]c4ccccc43)c(=O)n2-c2cccc(OC)c2)cc1`, the AC50 under setting [2] is 0.02 µM [falling, full curve, poor fit].

For the compound `COc1ccc(C(c2nnnn2C(C)(C)C)N2CCN(c3nc4ccccc4s3)CC2)cc1OC` (centres undefined), the AC50 reads like this: under setting [1], 8.91 µM [rising, partial curve]; under setting [2], 14.1 µM [rising, partial curve].

For `CCCCCn1c(=O)c2c(nc3n2CCN3c2ccc(Br)cc2)n(C)c1=O`, under setting [2], the AC50 is 0.00501 µM [falling, full curve, poor fit].

For the compound `COc1cc(C)ccc1OCCSc1nc2ccc(NC(C)=O)cc2s1`, the AC50 under setting [2] was 22.4 µM [falling, single point].

For `CC(C)(C)OC(=O)NCCc1nnc(SCc2c(Cl)cccc2Cl)o1`, under setting [2], the AC50 was 12.6 µM [rising, single point].

For `Cc1ccc(-n2[nH]c(C)c(/C=N/Nc3ccc([N+](=O)[O-])cc3[N+](=O)[O-])c2=O)cc1`, the AC50 under setting [2] is 17.8 µM [rising, partial curve, poor fit].

On to `Cc1cccc(NC(=O)c2ccccc2NC(=O)C2CCCCC2)c1C`, for which the AC50 was 8.91 µM [falling, single point] under setting [1] and 15.8 µM [falling, single point] under setting [2].

On to `COc1ccc(C(=O)N(Cc2ccc(N(C)C)cc2)C2CCS(=O)(=O)C2)cc1` (centres undefined), for which the AC50 under setting [2] was 14.1 µM [rising, single point].

With `COc1ccc(-c2nnc(SCC(=O)N3CCC(Cc4ccccc4)CC3)o2)cc1OC`, the AC50 by setting is: under setting [1], 17.8 µM [rising, single point]; under setting [2], 17.8 µM [rising, single point].

Consider `N#Cc1ccccc1-c1ccc2ncnc(NCc3cccs3)c2c1`, for which the AC50 was 15.8 µM [falling, partial curve] under setting [1] and 15.8 µM [falling, partial curve] under setting [2].

For the compound `Clc1ccc(-c2nnc(-c3ccco3)nc2N2CCCCC2)cc1`, the AC50 under setting [1] was 10 µM [rising, partial curve, poor fit] and the AC50 under setting [2] is 8.91 µM [rising, single point].

Regarding `CCN1C(=O)c2ccccc2Sc2ccc(NC(=O)c3ccc(C#N)cc3)cc21`, under setting [2], the AC50 was 0.562 µM [falling, full curve, poor fit].

Turning to `Cc1ccc(CN2CCN(CC(=O)O)C2=O)cc1`, the AC50 under setting [2] was 3.98 µM [falling, single point].

In the case of `Cc1nnc(C)n1/N=C/c1cccc(Oc2ccccc2)c1`, under setting [2], the AC50 was 35.5 µM [rising, single point].

As to `Cc1nn(-c2ccccc2)c(C)c1/C=N/n1c(-c2ccc(C(C)(C)C)cc2)n[nH]c1=S`, the half-maximal activity concentration (AC50) reads like this: under setting [1], 17.8 µM [falling, single point]; under setting [2], 15.8 µM [falling, single point].

Turning to `CN(C)c1ccc(C(=S)N2CCN(c3ccccc3)CC2)cc1`, the AC50 by setting is: under setting [1], 17.8 µM [rising, single point]; under setting [2], 14.1 µM [rising, single point].
